The values that follow come from publication PMC3542343.

Sequences of proteins named here, by UniProt entry; tags and fusion partners are left off.
UniProt P55064: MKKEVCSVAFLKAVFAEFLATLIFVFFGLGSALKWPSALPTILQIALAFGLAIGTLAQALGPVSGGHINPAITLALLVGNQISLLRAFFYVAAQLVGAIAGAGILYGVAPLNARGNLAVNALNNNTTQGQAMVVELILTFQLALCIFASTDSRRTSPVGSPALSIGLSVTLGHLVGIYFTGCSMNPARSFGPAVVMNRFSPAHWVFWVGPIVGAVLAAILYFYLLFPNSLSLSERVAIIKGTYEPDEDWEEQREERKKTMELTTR

The assay has as its target FLAG-AQP5 (human) (UniProt P55064). Kind of assay: co-IP; GFP-AQP2 and FLAG-AQP5 co-expressed in 293T cells; IP-IB with antibodies as indicated in the figure; FLAG antibody used for immunoprecipitation.

Results are given in words; binding and its absence hold for the method and conditions named. Binding seen in cells or lysates may run through a third protein. Some results given as binding are weak or reduced against the parent protein; the word gives no strength. Tags and fused reporters may be left off the sequences shown.

B1: green fluorescence protein (GFP)-AQP2 (protein, UniProt P41181 1-271)
chain: MWELRSIAFSRAVFAEFLATLLFVFFGLGSALNWPQALPSVLQIAMAFGLGIGTLVQALGHISGAHINPAVTVACLVGCHVSVLRAAFYVAAQLLGAVAGAALLHEITPADIRGDLAVNALSNSTTAGQAVTVELFLTLQLVLCIFASTDERRGENPGTPALSIGFSVALGHLLGIHYTGCSMNPARSLAPAVVTGKFDDHWVFWIGPLVGAILGSLLYNYVLFPPAKSLSERLAVLKGLEPDTDWEEREVRRRQSVELHSPQSLPRGTKA
B1: the binding result was “binds”.
